{"source": "PubChem BioAssay AID1508597 (Cure First, 2020)", "purpose": "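Survival screen with siRNA in ovarian cancer cells derived from patients, with or without rucaparib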 (primary screen)", "cells": "human ovarian carcinoma lines grown from tumours: OCI-P5x (papillary serous) and OCI-C5x (clear cell)", "knock-down reagent": "siRNA pool against human genes, 1.25 pmol siRNA per well", "duration": "72 h or 96 h, depending on the cell culture", "conditions": "rucaparib 20 µM (about IC30) or vehicle, present until read-out", "rucaparib or vehicle": "Rucaparib", "cell line": "OCI-C5x (clear cell)", "measured": "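Luminescent ATP-based viability assay read 72 or 96 h after transfection, depending on culture, given as normalised percent viability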", "scale": "viability, normalised: higher = more viable cells remaining", "call rule": "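a well counts as a hit if its normalised viability is under 80 percent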", "calls": "active = viability under 80%; inactive = viability 80% or more", "note": "This is an unselected part of the about 2,100 reagents, under one of the conditions tested. 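Calls flag viability under 80% in either arm, not effects specific to rucaparib; the reference for percent is not stated.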 Unmarked entries are inactive. A reagent listed more than once was tested more than once; the source does not tell the runs apart. Reagent sequences are not shown. Not given: the 100% reference."}
{"gene knocked down":"PRMT9","technical replicate":"1","viability, normalised (%)":"53.9 (active)"}
{"gene knocked down":"PRMT9","technical replicate":"2","viability, normalised (%)":"46.7 (active)"}
{"gene knocked down":"PRMT9","technical replicate":"3","viability, normalised (%)":"44.2 (active)"}
{"gene knocked down":"ARFGEF2","technical replicate":"1","viability, normalised (%)":"57.9 (active)"}
{"gene knocked down":"ARFGEF2","technical replicate":"2","viability, normalised (%)":"51.9 (active)"}
{"gene knocked down":"ARFGEF2","technical replicate":"3","viability, normalised (%)":"56 (active)"}
{"gene knocked down":"XAB2","technical replicate":"1","viability, normalised (%)":"33.8 (active)"}
{"gene knocked down":"XAB2","technical replicate":"2","viability, normalised (%)":"43.7 (active)"}
{"gene knocked down":"XAB2","technical replicate":"3","viability, normalised (%)":"40 (active)"}
{"gene knocked down":"POLK","technical replicate":"1","viability, normalised (%)":"48 (active)"}
{"gene knocked down":"POLK","technical replicate":"1","viability, normalised (%)":"62.5 (active)"}
{"gene knocked down":"POLK","technical replicate":"2","viability, normalised (%)":"38.2 (active)"}
{"gene knocked down":"POLK","technical replicate":"2","viability, normalised (%)":"53.5 (active)"}
{"gene knocked down":"POLK","technical replicate":"3","viability, normalised (%)":"60.1 (active)"}
{"gene knocked down":"POLK","technical replicate":"3","viability, normalised (%)":"33.1 (active)"}
{"gene knocked down":"MAP3K9","technical replicate":"1","viability, normalised (%)":"61.3 (active)"}
{"gene knocked down":"MAP3K9","technical replicate":"2","viability, normalised (%)":"44.2 (active)"}
{"gene knocked down":"MAP3K9","technical replicate":"3","viability, normalised (%)":"58.1 (active)"}
{"gene knocked down":"DICER1","technical replicate":"1","viability, normalised (%)":"66.4 (active)"}
{"gene knocked down":"DICER1","technical replicate":"2","viability, normalised (%)":"64.1 (active)"}
{"gene knocked down":"DICER1","technical replicate":"3","viability, normalised (%)":"64.4 (active)"}

Reprinted from the entries so far (5 entries):
{"gene knocked down":"POLK","technical replicate":"1","viability, normalised (%)":"62.5 (active)"}
{"gene knocked down":"POLK","technical replicate":"2","viability, normalised (%)":"38.2 (active)"}
{"gene knocked down":"POLK","technical replicate":"2","viability, normalised (%)":"53.5 (active)"}
{"gene knocked down":"POLK","technical replicate":"3","viability, normalised (%)":"60.1 (active)"}
{"gene knocked down":"POLK","technical replicate":"3","viability, normalised (%)":"33.1 (active)"}

Continued:
{"gene knocked down":"PRKACG","technical replicate":"1","viability, normalised (%)":"51 (active)"}
{"gene knocked down":"PRKACG","technical replicate":"2","viability, normalised (%)":"48.1 (active)"}
{"gene knocked down":"PRKACG","technical replicate":"3","viability, normalised (%)":"52.7 (active)"}
{"gene knocked down":"APOE","technical replicate":"1","viability, normalised (%)":"52.4 (active)"}
{"gene knocked down":"APOE","technical replicate":"2","viability, normalised (%)":"49.8 (active)"}
{"gene knocked down":"APOE","technical replicate":"3","viability, normalised (%)":"35.6 (active)"}
{"gene knocked down":"CDC5L","technical replicate":"1","viability, normalised (%)":"54.7 (active)"}
{"gene knocked down":"CDC5L","technical replicate":"2","viability, normalised (%)":"50.4 (active)"}
{"gene knocked down":"CDC5L","technical replicate":"3","viability, normalised (%)":"48.4 (active)"}
{"gene knocked down":"DDX60L","technical replicate":"1","viability, normalised (%)":"71.1 (active)"}
{"gene knocked down":"DDX60L","technical replicate":"2","viability, normalised (%)":"55.7 (active)"}
{"gene knocked down":"DDX60L","technical replicate":"3","viability, normalised (%)":"48.7 (active)"}
